The values that follow come from article PMC9210761.

For the experiment, the target named is CipA-ΔXD, C. thermocellum CipA without its terminal X-dockerin modular dyad (C. thermocellum). The experiment in a line: SEC-SAXS; CipA-ΔXD and Cel8A S458A-S459A co-expressed in E. coli from one plasmid; complex purified on a Sephacryl 200 column 1 h before injection on the beamline HPLC; scattering collected on the eluted peak. (In gel filtration, larger molecules generally elute earlier.)

These are yes or no findings as the source states them, for the method shown. Binding can be weak; no strength is given.

B1: C. thermocellum Cel8A S458A-S459A (dockerin mutant) co-expressed with CipA-ΔXD (enzyme, UniProt A3DC29 33-477)
chain: AGVPFNTKYPYGPTSIADNQSEVTAMLKAEWEDWKSKRITSNGAGGYKRVQRDASTNYDTVSEGMGYGLLLAVCFNEQALFDDLYRYVKSHFNGNGLMHWHIDANNNVTSHDGGDGAATDADEDIALALIFADKLWGSSGAINYGQEARTLINNLYNHCVEHGSYVLKPGDRWGGSSVTNPSYFAPAWYKVYAQYTGDTRWNQVADKCYQIVEEVKKYNNGTGLVPDWCTASGTPASGQSYDYKYDATRYGWRTAVDYSWFGDQRAKANCDMLTKFFARDGAKGIVDGYTIQGSKISNNHNASFIGPVAAASMTGYDLNFAKELYRETVAVKDSEYYGYYGNSLRLLTLLYITGNFPNPLSDLSGQPTPPSNPTPSLPPQVVYGDVNGDGNVNSTDLTMLKRYLLKSVTNINREAADVNRDGAINAADMTILKRYLIKSIPHLPY
Regarding B1, the binding result was “binds”.
